Patent US8067651B2, “1-alkyl-5-oxopyrrolidine-3-carboxylic esters with improved biodegradability” (Clariant Finance (BVI) Limited, priority 2007, dated 2011)

Legend:
[1] = Kinetic gas hydrate inhibition in stirred steel autoclave; conditions: 5000 ppm based on the water phase, 50 bar natural gas, distilled water and gas 20:80; for Tagg (h), time until the torque rises: 4° C.
[2] = Agglomerate inhibition (antiagglomerant) test in autoclave with water and white spirit; conditions: 5000 ppm based on the water phase; water and white spirit 1:2; 50 bar; 500 rpm

| SMILES | Tind (h), time from attainment of 4° C. until first gas absorption [1] [h] | Tagg (h), time until the torque rises [1] [h] | Mmax (Ncm), torque on the stirrer [2] [Ncm] | Tagg (h), agglomeration time until occurrence of gas hydrate agglomerates [2] [h] |
| --- | --- | --- | --- | --- |
| CC(C)CN1CC(C(=O)OCCOCCOCCOC(=O)C2CC(=O)N(CC(C)C)C2)CC1=O (stereo not drawn) [Example 8, triethylene glycol di(1-isobutyl-5-oxopyrrolidine-3-carboxylate)] | 20.9 | 22.1 |  |  |
| CCCCCCCC/C=C\CCCCCCCCN1CC(C(=O)OCCOCCOCCOC(=O)C2CC(=O)N(CCCCCCCC/C=C\CCCCCCCC)C2)CC1=O (stereo not drawn) [Example 15, triethylene glycol di(1-oleyl-5-oxopyrrolidine-3-carboxylate)] |  |  | 1.6 | 4.1 |
| CN1CC(C(=O)OCCOCCOCCOC(=O)C2CC(=O)N(C)C2)CC1=O (stereo not drawn) [Example 1, triethylene glycol di(1-methyl-5-oxopyrrolidine-3-carboxylate)] | 12.4 | 12.5 |  |  |
